From US20220041740A1 (LIFEARC, published 2022)
Results are given in words; binding and its absence hold for the method and conditions named. Some entries that bind do so weakly or less than the wild type.

How the values were obtained:
[1] = target: T1, IL-17BR (as injected in the Biacore competition assay) (Homo sapiens (Human)) (UniProt Q9NRM6); test: Biacore, IL-25 injected over IL-17BR held by captured hD9030
T1 sequence: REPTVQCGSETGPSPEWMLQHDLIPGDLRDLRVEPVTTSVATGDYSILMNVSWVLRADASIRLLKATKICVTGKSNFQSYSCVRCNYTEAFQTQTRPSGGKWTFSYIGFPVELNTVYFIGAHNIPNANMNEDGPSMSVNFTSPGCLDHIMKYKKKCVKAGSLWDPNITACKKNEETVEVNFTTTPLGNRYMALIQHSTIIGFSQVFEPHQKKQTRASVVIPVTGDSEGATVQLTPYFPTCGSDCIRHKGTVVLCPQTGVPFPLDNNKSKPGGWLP

[2] = target: T1, IL-17BR (as injected in the Biacore competition assay) (Homo sapiens (Human)); test: Biacore 2000 competition assay; IL-25 injected over IL-17BR that is held by hD9030 captured on a Protein A chip
[3] = target: T1, IL-17BR (as injected in the Biacore competition assay) (Homo sapiens (Human)); test: Biacore competition assay (figure legend)

binding [1]: binds | binding [2]: binds | binding [3]: binds
B1: IL-25 (ligand)
chain: YSHWPSCCPSKGQDTSEELLRWSTVPVPPLEPARPNRHPESCRASEDGPLNSRAISPWRYELDRDLNRLPQDLYHARCLCPHCVSLQTGSHMDPRGNSELLYHNQTVFYRRPCHGEKGTHKGYCLERRLYRVSLACVCVRPRVMG
